{"source": "PubChem BioAssay AID1224826 – NIAID – 2016", "screen": "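Genes that change LPS-induced Tnf promoter activity in mouse macrophages when knocked down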 (primary screen)", "system": "RAW264.7 G9 macrophages from mouse bearing reporters for p65 (GFP) and the Tnf promoter (mCherry)", "reagent": "siRNA pool against mouse genes, 100 nM", "timing": "16 h of LPS stimulation, after 2 days of siRNA transfection", "challenge": "bacterial lipopolysaccharide (Salmonella minnesota R595), 10 ng/ml", "detection": "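Imaged Tnf reporter mCherry in nuclei, minus background, normalised per plate to the median and expressed as robust z-scores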", "reading the numbers": "Tnf reporter robust z-score: higher = stronger Tnf promoter reporter signal after LPS", "hit rule": "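Called active when robust z-score is at most -1.3, matching the median of the Tlr4 knock-down control, or over 3; control wells and wells with under 50 cells never active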", "meaning of the calls": "active = Tnf reporter clearly lowered or raised; inactive = no clear change in Tnf reporter", "note": "In all, the deposit lists about 17,000 reagents; this is an unselected part. About 1,110 of them (6.6%) count as active. 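Active means lowered or raised reporter signal; replicate intensities are raw and not normalised per plate.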 Further read-outs or replicates are left out here."}
{"gene symbol": "4932414N04Rik (RIKEN cDNA 4932414N04 gene)", "fewer than 50 cells in well": "fewer than 50 cells per well; well left out of calls", "Call": "inactive"}
{"gene symbol": "Mrap (melanocortin 2 receptor accessory protein)", "Tnf reporter robust z-score": 1.18, "fewer than 50 cells in well": "enough cells in well", "Call": "inactive"}
{"gene symbol": "Slc39a7", "fewer than 50 cells in well": "fewer than 50 cells per well; well left out of calls", "Call": "inactive"}
{"gene symbol": "Sirt7 (sirtuin 7)", "Tnf reporter robust z-score": 0.53, "fewer than 50 cells in well": "enough cells in well", "Call": "inactive"}
{"gene symbol": "Gjb6 (gap junction protein, beta 6)", "Tnf reporter robust z-score": -0.82, "fewer than 50 cells in well": "enough cells in well", "Call": "inactive"}
{"gene symbol": "Lrrc45 (leucine rich repeat containing 45)", "Tnf reporter robust z-score": 1.58, "fewer than 50 cells in well": "enough cells in well", "Call": "inactive"}
{"gene symbol": "Cryl1 (crystallin, lambda 1)", "Tnf reporter robust z-score": -0.25, "fewer than 50 cells in well": "enough cells in well", "Call": "inactive"}
{"gene symbol": "Avp (arginine vasopressin)", "Tnf reporter robust z-score": 0.7, "fewer than 50 cells in well": "enough cells in well", "Call": "inactive"}
{"gene symbol": "Folr2 (folate receptor beta)", "Tnf reporter robust z-score": 0.6, "fewer than 50 cells in well": "enough cells in well", "Call": "inactive"}
{"gene symbol": "Eef1e1 (eukaryotic translation elongation factor 1 epsilon 1)", "Tnf reporter robust z-score": -1.28, "fewer than 50 cells in well": "enough cells in well", "Call": "inactive"}
{"gene symbol": "Srsf4 (serine and arginine-rich splicing factor 4)", "Tnf reporter robust z-score": 2.16, "fewer than 50 cells in well": "enough cells in well", "Call": "inactive"}
{"gene symbol": "Mrrf (mitochondrial ribosome recycling factor)", "Tnf reporter robust z-score": -0.11, "fewer than 50 cells in well": "enough cells in well", "Call": "inactive"}
{"gene symbol": "Spata6l (spermatogenesis associated 6 like)", "Tnf reporter robust z-score": -0.25, "fewer than 50 cells in well": "enough cells in well", "Call": "inactive"}
{"gene symbol": "Frmpd3 (FERM and PDZ domain containing 3)", "Tnf reporter robust z-score": 0.46, "fewer than 50 cells in well": "enough cells in well", "Call": "inactive"}
{"gene symbol": "Hoatz (HOATZ cilia and flagella associated protein)", "fewer than 50 cells in well": "fewer than 50 cells per well; well left out of calls", "Call": "inactive"}
{"gene symbol": "Esrrg (estrogen-related receptor gamma)", "Tnf reporter robust z-score": -0.05, "fewer than 50 cells in well": "enough cells in well", "Call": "inactive"}
{"gene symbol": "Loxl2 (lysyl oxidase-like 2)", "Tnf reporter robust z-score": -0.04, "fewer than 50 cells in well": "enough cells in well", "Call": "inactive"}

Part of the list above, reformatted:
{"gene symbol":"Hoatz (HOATZ cilia and flagella associated protein)","fewer than 50 cells in well":"fewer than 50 cells per well; well left out of calls","Call":"inactive"}
{"gene symbol":"Esrrg (estrogen-related receptor gamma)","Tnf reporter robust z-score":-0.05,"fewer than 50 cells in well":"enough cells in well","Call":"inactive"}
{"gene symbol":"Loxl2 (lysyl oxidase-like 2)","Tnf reporter robust z-score":-0.04,"fewer than 50 cells in well":"enough cells in well","Call":"inactive"}

The listing continues:
{"gene symbol": "Chchd2l2", "fewer than 50 cells in well": "fewer than 50 cells per well; well left out of calls", "Call": "inactive"}
{"gene symbol": "Bcl2l2 (BCL2-like 2)", "Tnf reporter robust z-score": 0.21, "fewer than 50 cells in well": "enough cells in well", "Call": "inactive"}
{"gene symbol": "Veph1 (ventricular zone expressed PH domain-containing 1)", "fewer than 50 cells in well": "fewer than 50 cells per well; well left out of calls", "Call": "inactive"}
{"gene symbol": "Tmem208 (transmembrane protein 208)", "Tnf reporter robust z-score": 0.06, "fewer than 50 cells in well": "enough cells in well", "Call": "inactive"}
{"gene symbol": "Oprd1 (opioid receptor, delta 1)", "Tnf reporter robust z-score": -1.82, "fewer than 50 cells in well": "enough cells in well", "Call": "active"}
{"gene symbol": "A930006J02Rik (retired record)", "Tnf reporter robust z-score": -0.66, "fewer than 50 cells in well": "enough cells in well", "Call": "inactive"}
{"gene symbol": "V1rd18 (vomeronasal 1 receptor, D18)", "fewer than 50 cells in well": "fewer than 50 cells per well; well left out of calls", "Call": "inactive"}
{"gene symbol": "H3c15 (H3 clustered histone 15)", "Tnf reporter robust z-score": -0.38, "fewer than 50 cells in well": "enough cells in well", "Call": "inactive"}
{"gene symbol": "Tm4sf5 (transmembrane 4 superfamily member 5)", "fewer than 50 cells in well": "fewer than 50 cells per well; well left out of calls", "Call": "inactive"}
{"gene symbol": "Bbln (bublin coiled coil protein)", "Tnf reporter robust z-score": 0.48, "fewer than 50 cells in well": "enough cells in well", "Call": "inactive"}
